From patent publication US20240294544A1, “NEW SUBSTITUTED PYRIDINES AS FUNGICIDES” (BASF SE, priority 2021, published 2024)
Some of these results come from one statement about several compounds together.

How the values were obtained:
Sclerotinia sclerotiorum = assay: Example 17: preventative fungicidal control of white mold on oilseed rape caused by Sclerotinia sclerotiorum (green house); assay type: in vivo; conditions: 100 g/ha, sprayed one day before inoculation; assessed after 14 days; untreated plants 100% infected
[1] = tested on: Colletotrichum orbiculare; assay: Example 7: activity against Colletotrichum orbiculare in the microtiterplate test; assay type: cell-based; conditions: 31 ppm active substance; DOB media (ph 7); relative to compound-free control (100%)
[2] = tested on: Pyrenophora teres Qoi (FL129) resistant isolate; assay: Example 12: activity against Pyrenophora teres Qoi (FL129) resistant isolate in the microtiterplate test; assay type: cell-based; conditions: 31 ppm active substance; DOB media (ph 7); relative to compound-free control (100%)
Botrytis cinerea [3] = assay: Example 3: activity against the grey mold Botrytis cinerea in the microtiterplate test; assay type: cell-based; conditions: 31 ppm active substance; relative to compound-free control (100%)
Corynespora cassiicola = assay: Example 14: activity against Corynespora cassiicola in the microtiterplate test; assay type: cell-based; conditions: 31 ppm active substance; DOB media (ph 7); relative to compound-free control (100%)
Septoria tritici = assay: Example 5: activity against the leaf blotch on wheat caused by Septoria tritici in the microtiterplate test; assay type: cell-based; conditions: 31 ppm active substance; relative to compound-free control (100%)
[4] = tested on: Corynespora cassiicola (CORYCA-G) G413A mutant; assay: Example 15: activity against Corynespora cassiicola (CORYCA-G) G413A mutant in the microtiterplate test; assay type: cell-based; conditions: 31 ppm active substance; DOB media (ph 7); relative to compound-free control (100%)
Monilinia laxa = assay: Example 10: activity against Monilinia laxa in the microtiterplate test; assay type: cell-based; conditions: 31 ppm active substance; DOB media (ph 7); relative to compound-free control (100%)
Microdochium nivale = assay: Example 6: activity against Microdochium nivale in the microtiterplate test; assay type: cell-based; conditions: 31 ppm active substance; DOB media (ph 7); relative to compound-free control (100%)
Leptosphaeria nodorum = assay: Example 8: activity against Leptosphaeria nodorum in the microtiterplate test; assay type: cell-based; conditions: 31 ppm active substance; DOB media (ph 7); relative to compound-free control (100%)
Leptosphaeria maculans = assay: Example 13: activity against Leptosphaeria maculans in the microtiterplate test; assay type: cell-based; conditions: 31 ppm active substance; DOB media (ph 7); relative to compound-free control (100%)
Ustilago maydis = assay: Example 11: activity against Ustilago maydis in the microtiterplate test; assay type: cell-based; conditions: 31 ppm active substance; DOB media (ph 7); relative to compound-free control (100%)
Fusarium gramminearis = assay: Example 9: activity against Fusarium gramminearis in the microtiterplate test; assay type: cell-based; conditions: 31 ppm active substance; DOB media (ph 7); relative to compound-free control (100%)
Fusarium culmorum = assay: Example 4: activity against Fusarium culmorum in the microtiterplate test; assay type: cell-based; conditions: 31 ppm active substance; relative to compound-free control (100%)
Botrytis cinerea [5] = assay: Example 18: preventative fungicidal control of Botrytis cinerea on leaves of green pepper (green house); assay type: in vivo; conditions: 250 ppm, sprayed one day before inoculation; assessed after 5 days; untreated plants 100% infected
Botrytis cinerea [6] = assay: Example 16: preventative fungicidal control of Botrytis cinerea on leaves of green pepper (green house); assay type: in vivo; conditions: 250 ppm, sprayed one day before inoculation; assessed after 5 days; untreated plants 90% infected
Botrytis cinerea [7] = assay: Example 19: long lasting control of Botrytis cinerea on leaves of green pepper (green house); assay type: in vivo; conditions: 250 ppm, sprayed 7 days before inoculation; assessed after 5 days; untreated plants 90% infected

Structure (SMILES)	growth of the pathogen (visually assessed as % diseased leaf area) (Sclerotinia sclerotiorum)	growth of the pathogen [1] [%]	growth of the pathogen [2] [%]	growth of the pathogen (Botrytis cinerea [3]) [%]	growth of the pathogen (Corynespora cassiicola) [%]	growth of the pathogen (Septoria tritici) [%]	growth of the pathogen [4] [%]	growth of the pathogen (Monilinia laxa) [%]	growth of the pathogen (Microdochium nivale) [%]	growth of the pathogen (Leptosphaeria nodorum) [%]	growth of the pathogen (Leptosphaeria maculans) [%]	growth of the pathogen (Ustilago maydis) [%]	growth of the pathogen (Fusarium gramminearis) [%]	growth of the pathogen (Fusarium culmorum) [%]	growth of the pathogen (visually assessed as % diseased leaf area) (Botrytis cinerea [5])	growth of the pathogen (visually assessed as % diseased leaf area) (Botrytis cinerea [6])	growth of the pathogen (visually assessed as % diseased leaf area) (Botrytis cinerea [7])
Cc1cc(C2=NC3(CCC3)Oc3c(Cl)cccc32)cnc1C [Ex-33]	at most 10%	≤ 17	≤ 16	≤ 11	≤ 19	≤ 20	≤ 19	≤ 16	≤ 18	≤ 19	≤ 10	≤ 19	≤ 17	≤ 19			
Cc1cc(C2=NC(C)(c3ccccc3)Oc3c(F)cccc32)cnc1C (stereo not drawn) [Ex-34]		≤ 17	≤ 16	≤ 11	≤ 19		≤ 19	≤ 16	≤ 18	≤ 19	≤ 10				at most 15%	at most 15%	
COc1ccc2c(c1)OC(C)(C)N=C2c1cnc(C(F)F)c(C)c1 [Ex-35]				≤ 11	≤ 19		≤ 19	≤ 16	≤ 18	≤ 19	≤ 10		≤ 17	≤ 19	at most 15%		at most 15%
COc1ccc2c(c1)OC(C)(C)N=C2c1cnc(C)c(C)c1 [Ex-36]		≤ 17	≤ 16	≤ 11	≤ 19		≤ 19	≤ 16	≤ 18	≤ 19	≤ 10	≤ 19	≤ 17	≤ 19	at most 15%	at most 15%	
COc1ccc2c(c1)OC1(CCC1)N=C2c1cnc(C(F)F)c(C)c1 [Ex-37]				≤ 11	≤ 19		≤ 19	≤ 16	≤ 18	≤ 19	≤ 10				at most 15%		at most 15%
COc1ccc2c(c1)OC1(CCC1)N=C2c1cnc(C)c(C)c1 [Ex-38]			≤ 16	≤ 11	≤ 19		≤ 19	≤ 16	≤ 18	≤ 19	≤ 10		≤ 17	≤ 19	at most 15%	at most 15%	
Cc1cc(C2=NC3(CCC3)Oc3c(C)cccc32)cnc1C(F)F [Ex-49]	at most 10%	≤ 17	≤ 16	≤ 11	≤ 19	≤ 20	≤ 19	≤ 16	≤ 18	≤ 19	≤ 10				at most 15%		at most 15%
Cc1cc(C2=NC(C)(C)Oc3c(Cl)cccc32)cnc1C(F)F [Ex-63]	at most 10%	≤ 17	≤ 16	≤ 11	≤ 19		≤ 19	≤ 16	≤ 18	≤ 19	≤ 10			≤ 19			at most 15%
